PubChem BioAssay AID1671195 – Yale University | 2021

- Aim: 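Regulators of LDL receptor activity judged by labelled LDL uptake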 (primary screen)
- System: human Huh7 hepatoma cells
- Reagent: siRNA pool against human genes, 18 nM
- Duration: about 2 to 2.5 days of knockdown, then 8 h LDL uptake
- Conditions: DiI-labelled LDL at 30 µg/ml for 8 h, in lipoprotein-deficient serum medium
- Measured: 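Per-cell DiI-LDL intensity by automated imaging; well means scaled to the plate median and given as a robust z-score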
- Reading the numbers: robust z-score: higher = more LDL uptake after knockdown
- Rule for the call: 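a gene counts as active if at least two replicate z-scores exceed ±2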
In all, the deposit lists about 22,000 reagents; below is a part drawn at random. About 1,510 of all reagents (6.9%) were called active. 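Active includes knockdowns raising or lowering LDL uptake; positive z-scores mean more uptake, negative mean less.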 The numbers tell different reagents against one gene apart.

The opening 4 entries, ahead of the listing:
no.	gene knocked down	pool no.	robust z-score, replicate 1	robust z-score, replicate 2	robust z-score, replicate 3	activity call
1	ARMC8	1	-0.0285	0.563	0.0628	inactive
2	TSKS	1	-1.26	-0.782	-0.962	inactive
3	OR2J4P	1	-0.425	-0.621	-0.15	inactive
4	C9orf152	1	0.171	0.461	0.756	inactive

Main list, repeating the preview:
no.	gene knocked down	pool no.	robust z-score, replicate 1	robust z-score, replicate 2	robust z-score, replicate 3	activity call
1	ARMC8	1	-0.0285	0.563	0.0628	inactive
2	TSKS	1	-1.26	-0.782	-0.962	inactive
3	OR2J4P	1	-0.425	-0.621	-0.15	inactive
4	C9orf152	1	0.171	0.461	0.756	inactive
5	LOC137485 (retired record)	1	1.2	-0.401	0.525	inactive
6	BRPF3	1	-1.08	-1.42	-1.31	inactive
7	ADNP	1	1.35	-0.606	1.47	inactive
8	CELSR2	1	0.387	0.314	-0.013	inactive
9	KIAA2013	1	-1.07	-1.13	-0.788	inactive
10	N4BP2L2	1	-0.242	1.7	-0.368	inactive
11	N4BP2L2	2	0.415	-0.356	0.492	inactive
12	HCK	1	0.47	0.204	0.0462	inactive
13	SMYD3	1	-0.0604	-0.361	0.36	inactive
14	H2AC16	1	0.161	2.3	0.6	inactive
15	SIK1	1	1.4	1.55	1.31	inactive
16	SAMD9	1	1.63	2.27	1.88	inactive
17	CT45A5	1	0.747	0.537	0.226	inactive
18	GIPR	1	-0.633	0.441	-0.0633	inactive
19	ETNPPL	1	3.91	3.47	3.86	active
20	GCNA	1	1.17	1.16	1.44	inactive
21	CXCR4	1	-1.81	-0.926	-1.26	inactive
22	NCKAP1L	1	2.58	2.06	2.29	active
23	MRPL58	1	-0.262	-0.0912	-0.169	inactive
24	DDX17	1	0.177	1.78	1.6	inactive
25	CYP7B1	1	-0.202	0.388	0.0331	inactive
26	NINL	1	-1.39	-0.412	-1.05	inactive
27	STAT4	1	0.397	0.72	0.19	inactive
28	AUTS2	1	-1.22	-0.238	0.644	inactive
29	OR51E1	1	-1.32	-1.58	-1.4	inactive
30	SNED1	1	0.614	0.754	0.113	inactive
31	SPN	1	-0.112	1.59	0.959	inactive
32	LOC388890 (retired record)	1	-0.835	-0.652	-0.913	inactive
33	LMNB2	1	-0.0469	-0.401	-1.03	inactive
34	ADPRH	1	-1.35	-1.54	-0.819	inactive
35	TAMM41	1	-0.696	-0.398	-0.198	inactive
36	LOC388274 (retired record)	1	0.167	0.216	0.608	inactive
37	NR2E3	1	-0.72	-0.578	-0.903	inactive
38	TATDN1	1	0.348	0.706	0.818	inactive
39	FAM86GP	1	1.21	1.14	1.3	inactive
40	PITX1	1	0.75	0.0796	1.63	inactive
41	KIF27	1	0.866	1.36	0.112	inactive
42	MRPL45	1	-0.654	-0.332	-0.746	inactive
43	KASH5	1	0.411	-0.127	0.144	inactive
44	COX4I2	1	0.811	1.75	0.37	inactive
45	SNHG11	1	0.617	1.35	0.998	inactive
46	BUB1B	1	0.0535	-1.11	0.518	inactive
47	OCEL1	1	0.161	0.511	0.00517	inactive
48	ZCCHC12	1	0.248	-0.543	-0.439	inactive
49	ANKRD40CL	1	0.359	2.06	-1.06	inactive
50	H2AC15	1	0.144	2.41	0.409	inactive
51	UFSP2	1	0.196	0.527	1.91	inactive
52	SACK1E	1	0.783	1.33	-1.22	inactive
53	DUS3L	1	-0.404	-0.496	0.874	inactive
54	DDX18	1	0.175	0.249	0.474	inactive
55	TCF25	1	-0.64	0.12	-1.72	inactive
56	CCDC196	1	2.22	1.75	2.19	active
57	AGBL5	1	1.88	1.29	2.37	inactive
58	CASP7	1	-1.7	-1.14	-1.59	inactive
59	CCDC144NL-AS1	1	-0.976	-0.897	-1.11	inactive
60	TAB1	1	-0.775	-0.893	-1.94	inactive
61	KCTD10	1	0.00509	1.05	-0.365	inactive
62	LOC440417 (retired record)	1	-0.988	-1.21	-1.54	inactive
63	MADCAM1	1	-1.64	-0.658	0.376	inactive
64	LOC391337 (retired record)	1	-1.06	-1.09	-1.27	inactive
65	JCHAIN	1	0.15	1.06	0.634	inactive
66	SLC2A14	1	-1.45	-1.74	-1.33	inactive
67	CHID1	1	-0.37	-0.492	-0.623	inactive
68	PLEKHG2	1	-0.184	-0.621	-0.642	inactive
69	RAC1	1	0.825	0.853	-0.273	inactive
70	MRPS33	1	-1.69	-0.0756	-0.0994	inactive
71	RPL27AP2	1	-0.46	0.258	0.448	inactive
72	LILRB4	1	-0.211	-0.312	0.445	inactive
73	CBX3	1	-0.138	0.226	-0.512	inactive
74	LINC00207	1	1.02	1.33	1.42	inactive
75	CCNT2	1	-0.248	0.464	0.992	inactive
76	LOC441239	1	-0.626	-0.161	-0.423	inactive
77	SLC17A5	1	-1.07	-0.829	-0.752	inactive
78	PA2G4	1	-0.914	-1.6	-0.515	inactive
79	ROBO2	1	-0.885	-0.823	-0.674	inactive
80	ANKS1A	1	-0.21	-1.21	0.24	inactive
81	DOCK10	1	2.53	2.46	2.96	active
82	VIM	1	2.38	0.301	4.33	active
83	PTDSS2	1	1.19	1.68	1.57	inactive
84	TUBGCP6	1	-0.244	-1.06	-0.584	inactive
85	CREB1	1	-0.339	0.0232	-0.569	inactive
86	KNCN	1	1.26	1.98	1.4	inactive
87	HINFP	1	0.63	0.708	1.02	inactive
